Results published in publication PMC9637104.

Amino acid sequences for entries named in this document (tags omitted).
UniProt Q8C9H6: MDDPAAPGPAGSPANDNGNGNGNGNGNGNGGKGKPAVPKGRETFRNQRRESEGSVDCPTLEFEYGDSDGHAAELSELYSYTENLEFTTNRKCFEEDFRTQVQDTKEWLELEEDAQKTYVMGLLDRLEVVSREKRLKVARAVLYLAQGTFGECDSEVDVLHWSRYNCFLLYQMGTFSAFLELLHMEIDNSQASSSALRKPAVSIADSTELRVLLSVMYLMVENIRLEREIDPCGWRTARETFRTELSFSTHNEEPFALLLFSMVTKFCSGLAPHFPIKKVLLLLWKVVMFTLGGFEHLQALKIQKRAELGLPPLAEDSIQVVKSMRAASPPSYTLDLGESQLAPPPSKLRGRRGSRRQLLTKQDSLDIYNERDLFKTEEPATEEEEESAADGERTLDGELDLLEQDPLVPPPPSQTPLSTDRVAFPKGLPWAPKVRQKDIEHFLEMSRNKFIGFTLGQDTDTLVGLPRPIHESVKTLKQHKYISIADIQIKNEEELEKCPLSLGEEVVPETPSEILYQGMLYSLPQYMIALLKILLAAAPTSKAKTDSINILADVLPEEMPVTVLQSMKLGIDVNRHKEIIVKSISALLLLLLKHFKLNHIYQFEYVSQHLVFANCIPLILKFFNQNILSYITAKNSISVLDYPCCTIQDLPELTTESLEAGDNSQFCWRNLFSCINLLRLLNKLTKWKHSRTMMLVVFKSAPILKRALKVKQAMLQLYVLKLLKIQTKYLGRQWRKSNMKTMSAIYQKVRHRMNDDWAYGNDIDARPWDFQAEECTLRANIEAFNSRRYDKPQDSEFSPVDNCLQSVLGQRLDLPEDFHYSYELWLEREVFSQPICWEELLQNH
UniProt O09106: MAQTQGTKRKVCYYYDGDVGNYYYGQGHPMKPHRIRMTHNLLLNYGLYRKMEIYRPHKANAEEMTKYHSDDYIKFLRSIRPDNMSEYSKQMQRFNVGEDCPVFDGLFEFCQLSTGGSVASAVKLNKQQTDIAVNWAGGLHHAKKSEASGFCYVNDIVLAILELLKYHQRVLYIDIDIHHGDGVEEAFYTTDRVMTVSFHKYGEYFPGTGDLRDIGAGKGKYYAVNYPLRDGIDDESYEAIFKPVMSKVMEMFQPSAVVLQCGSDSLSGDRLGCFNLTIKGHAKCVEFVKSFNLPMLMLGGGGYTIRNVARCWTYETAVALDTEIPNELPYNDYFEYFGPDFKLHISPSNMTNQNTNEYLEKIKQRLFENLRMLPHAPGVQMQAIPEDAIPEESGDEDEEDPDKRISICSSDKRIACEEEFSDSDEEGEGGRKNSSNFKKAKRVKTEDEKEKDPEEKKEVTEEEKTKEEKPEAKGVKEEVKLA
UniProt Q61686: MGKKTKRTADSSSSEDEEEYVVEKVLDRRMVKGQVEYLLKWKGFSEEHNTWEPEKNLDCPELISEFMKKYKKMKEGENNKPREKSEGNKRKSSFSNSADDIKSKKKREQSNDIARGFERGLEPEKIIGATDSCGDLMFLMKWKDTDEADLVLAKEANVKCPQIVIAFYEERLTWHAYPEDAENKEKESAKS

Biological target: Strip2-turboGFP (mouse) (UniProt Q8C9H6)
Assay: affinity purification with mass spectrometry; TurboGFP-Trap agarose on RIPA lysates of Strip2-turboGFP ESCs (0-day ESCs, 4-day and 16-day EBs), 1 h at 4 °C; GFP-only ESCs as control; label-free quantification

binding, binds:
DNA (cytosine-5)-methyltransferase 3 beta (Dnmt3b) (from UniProt O88509 1-859)
Hadc1 (from UniProt O09106 1-482)
heterochromatin protein 1 (HP1; also known as Cbx5) (from UniProt Q61686 1-191)

No constants are given. Whether binding was seen depends on the method and setting. Binding seen in cells or lysates may run through a third protein. Here binding means that the protein was enriched with, or labelled near, the bait; the list need not be complete.
